Results on 1 molecule are retold here after patent US6815187.

The assay has as its target syndecan-4 cytoplasmic tail peptide with a phosphorylated Ser (S4c-P). The assay is described as follows: self-association; size-exclusion chromatography (Sephadex G-50) of 300 µM peptide with 350 µM PIP2. On the technique in general: SEC sorts molecules by how far they enter the pores of the column.

Results are given in words; binding and its absence hold for the method and conditions named. Some results given as binding are weak or reduced against the parent protein; the word gives no strength.

For the molecule RMKKKDEGSYDLGKKPIYKKAPTNEFYA (phosphorylated Ser (the single Ser of the peptide, Ser183 of syndecan-4)) [syndecan-4 cytoplasmic tail peptide with a phosphorylated Ser (S4c-P)], the binding result is “binds”.
